Test results reported in patent US11684306B2, “Stable water isotope labeling and magnetic resonance imaging for visualization of the presence of and prediction of the likelihood of occurence of rapidly dividing cells” (THE UNITED STATES OF AMERICA, AS REPRESENTED BY THE …, priority 2016, dated 2023).
Entries after “also recorded” stand apart in the source; their conditions may differ.

Assays:
mouse tumor cells = experiment: In vitro deuterated water labeling of cultured mouse tumor cells; type: cell-based
cGVHD-affected mice = experiment: Deuterium chemical shift imaging (CSI, dMRI) of HSCT recipient mice after 2H2O labeling; type: in vivo, mouse; conditions: day +28, 21 days of 2H2O labeling to TBW of ~5%; normalized to 5% 2H2O phantom

Compound: [2H]O[2H] [deuterated water]
- dA deuterium enrichment (mouse tumor cells; cultured mouse tumor cells labeled in vitro with deuterated water): ~50%
- spectroscopic deuterium signal (mouse tumor cells; mouse tumor cells labeled in vitro during culture, versus un-enriched water phantom): clear spectroscopic deuterium signal
- 2H CSI signal in liver, cGVHD-affected (allogeneic) mice versus syngeneic controls (cGVHD-affected mice): significantly greater; also recorded: significantly higher
- 2H CSI signal in quadriceps muscle (tissue not targeted by cGVHD), allogeneic versus syngeneic (cGVHD-affected mice): no difference; also recorded: did not differ
